In article doi:10.1101/2020.01.31.926402:
Results are given in words; binding and its absence hold for the method and conditions named. Binding seen in cells or lysates may run through a third protein. Here binding means that the protein was enriched with, or labelled near, the bait; the list need not be complete.

Legend:
Experiment in all cases: affinity purification with mass spectrometry
BR-FLAG (human) = BR-FLAG (human) (UniProt Q69YU5)
[1] = molecular target: BRAWNIN (BR), untagged, over-expressed (human) (UniProt Q69YU5)
[2] = molecular target: BRAWNIN (BR), endogenous human (human (endogenous in HEK293T)) (UniProt Q69YU5)

Measured: binding

B1: GHITM, human (protein, UniProt Q9H3K2 46-345)
chain: ATKTRIGIRRGRTGQELKEAALEPSMEKIFKIDQMGRWFVAGGAAVGLGALCYYGLGLSNEIGAIEKAVIWPQYVKDRIHSTYMYLAGSIGLTALSAIAISRTPVLMNFMMRGSWVTIGVTFAAMVGAGMLVRSIPYDQSPGPKHLAWLLHSGVMGAVVAPLTILGGPLLIRAAWYTAGIVGGLSTVAMCAPSEKFLNMGAPLGVGLGLVFVSSLGSMFLPPTTVAGATLYSVAMYGGLVLFSMFLLYDTQKVIKRAEVSPMYGVQKYDPINSMLSIYMDTLNIFMRVATMLATGGNRKK
binds: all assays above
